From publication PMC11079016 come the findings set out here.

Amino acid sequences for entries named in this document (tags omitted). Residues count along the entry.
UniProt Q9NZQ7, residues 19-290: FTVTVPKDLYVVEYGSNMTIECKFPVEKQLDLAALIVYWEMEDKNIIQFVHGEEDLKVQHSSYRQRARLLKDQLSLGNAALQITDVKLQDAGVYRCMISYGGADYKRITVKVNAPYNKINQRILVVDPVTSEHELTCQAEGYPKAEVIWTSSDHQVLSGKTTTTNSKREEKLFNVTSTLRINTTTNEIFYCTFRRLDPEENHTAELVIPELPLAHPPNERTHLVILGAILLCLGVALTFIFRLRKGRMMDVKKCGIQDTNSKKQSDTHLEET

These are yes or no findings as the source states them, for the method shown. In cells and extracts the contact can be indirect. Some results given as binding are weak or reduced against the parent protein; the word gives no strength.

The assay concerns the target exogenous Flag-tagged PD-L1 (UniProt Q9NZQ7). As to the kind of experiment: co-IP; immunoprecipitation with an anti-Flag antibody from aT-sEV-treated CAL27 cells expressing exogenous Flag-tagged PD-L1; with or without aT-sEV treatment.

As to “HRS (ESCRT-0 subunit; also known as HGS) (from UniProt O14964-1 1-777)”, the binding result is listed as “binds”.
